Laboratory results: patent US6727278B1, “Pharmaceutically active agents that impede amyloid formation in vivo” (DMS Pharmaceutical Inc., priority 1986, dated 2004)

Test system: human DMS
Assay: In vivo assay: amyloid formation induced by intracerebral injection of human DMS with the compound, Congo Red histology
Parameters: species or system Male Wistar rats
[1] = in-tissue concentration 10^−5 − 10^−6M, rat cerebral cortex, human DMS co-injected

In the case of `Cc1noc(NS(=O)(=O)c2ccc(N)cc2)c1C` [Gantrisin, Sulfisoxazole], the “Mean Lesion Area Examined” value (in-tissue concentration 10^−2M) is reported as 10.4 mm^2 and the “Mean Lesion Area Examined” value [1] is reported as 10.8 mm^2.

With `CCc1nc(N)nc(N)c1-c1ccc(Cl)cc1` [Daraprim, Pyrimethamine] the “Mean Lesion Area Examined” value [1] was 10.1 mm^2.

In the case of `OCCN(CCO)c1nc(N2CCCCC2)c2nc(N(CCO)CCO)nc(N3CCCCC3)c2n1` [Persantine, 2,6-bis-(diethanolamino)-4,8-dipiperidinopyrimido-(5,4-d)-pyrimidine], the “Mean Lesion Area Examined” value (in-tissue concentration 10^−2M) is reported as 11.0 mm^2 and the “Mean Lesion Area Examined” value [1] is reported as 9.4 mm^2.
